Source: patent US20020037533A1
Results are given in words; binding and its absence hold for the method and conditions named. Binding seen in cells or lysates may run through a third protein. Some entries that bind do so weakly or less than the wild type. Tags and fused reporters may be left off the sequences shown.

The chains behind the UniProt entries cited, without tags or fusion partners. Where a name states a change or a piece, a line headed by the entry shows the natural chain unless it says otherwise. A line that says so, or that is headed by a name, gives the form on record, which may keep a tag or linker. Residues count along the entry.
UniProt P97879: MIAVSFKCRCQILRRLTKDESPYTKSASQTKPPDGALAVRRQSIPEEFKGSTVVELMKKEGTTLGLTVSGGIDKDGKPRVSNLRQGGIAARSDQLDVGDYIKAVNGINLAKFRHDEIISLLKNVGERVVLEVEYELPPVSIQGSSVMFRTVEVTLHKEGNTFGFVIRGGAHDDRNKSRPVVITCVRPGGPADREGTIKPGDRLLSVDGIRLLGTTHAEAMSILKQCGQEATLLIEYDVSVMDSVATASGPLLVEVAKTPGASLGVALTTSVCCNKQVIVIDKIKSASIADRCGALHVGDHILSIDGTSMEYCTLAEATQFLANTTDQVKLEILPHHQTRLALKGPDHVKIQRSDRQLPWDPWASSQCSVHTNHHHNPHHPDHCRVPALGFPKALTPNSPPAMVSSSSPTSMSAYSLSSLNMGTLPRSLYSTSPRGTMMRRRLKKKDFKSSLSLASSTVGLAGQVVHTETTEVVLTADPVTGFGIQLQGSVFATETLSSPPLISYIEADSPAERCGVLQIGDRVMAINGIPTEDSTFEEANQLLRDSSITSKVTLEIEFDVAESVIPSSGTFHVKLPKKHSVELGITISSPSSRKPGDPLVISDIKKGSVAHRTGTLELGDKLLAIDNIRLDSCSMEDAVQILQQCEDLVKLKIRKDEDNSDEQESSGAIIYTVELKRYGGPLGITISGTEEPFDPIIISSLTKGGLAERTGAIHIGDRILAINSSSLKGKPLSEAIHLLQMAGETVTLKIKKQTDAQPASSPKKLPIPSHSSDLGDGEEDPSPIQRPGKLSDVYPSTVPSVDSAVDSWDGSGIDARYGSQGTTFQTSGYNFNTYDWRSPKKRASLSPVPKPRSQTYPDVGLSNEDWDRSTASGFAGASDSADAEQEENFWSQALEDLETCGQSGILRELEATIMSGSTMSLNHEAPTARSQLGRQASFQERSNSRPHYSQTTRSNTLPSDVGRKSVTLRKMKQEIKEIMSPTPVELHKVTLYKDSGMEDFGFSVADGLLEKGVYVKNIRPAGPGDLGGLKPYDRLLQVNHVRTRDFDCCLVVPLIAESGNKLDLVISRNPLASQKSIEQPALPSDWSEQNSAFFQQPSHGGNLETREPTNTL
6X-Histidine tagged GRIP PDZ domain segment 4-6: residues 465-760 of P97879
myc-tagged ABP (AMPA binding protein) (Q9WTW1, form named): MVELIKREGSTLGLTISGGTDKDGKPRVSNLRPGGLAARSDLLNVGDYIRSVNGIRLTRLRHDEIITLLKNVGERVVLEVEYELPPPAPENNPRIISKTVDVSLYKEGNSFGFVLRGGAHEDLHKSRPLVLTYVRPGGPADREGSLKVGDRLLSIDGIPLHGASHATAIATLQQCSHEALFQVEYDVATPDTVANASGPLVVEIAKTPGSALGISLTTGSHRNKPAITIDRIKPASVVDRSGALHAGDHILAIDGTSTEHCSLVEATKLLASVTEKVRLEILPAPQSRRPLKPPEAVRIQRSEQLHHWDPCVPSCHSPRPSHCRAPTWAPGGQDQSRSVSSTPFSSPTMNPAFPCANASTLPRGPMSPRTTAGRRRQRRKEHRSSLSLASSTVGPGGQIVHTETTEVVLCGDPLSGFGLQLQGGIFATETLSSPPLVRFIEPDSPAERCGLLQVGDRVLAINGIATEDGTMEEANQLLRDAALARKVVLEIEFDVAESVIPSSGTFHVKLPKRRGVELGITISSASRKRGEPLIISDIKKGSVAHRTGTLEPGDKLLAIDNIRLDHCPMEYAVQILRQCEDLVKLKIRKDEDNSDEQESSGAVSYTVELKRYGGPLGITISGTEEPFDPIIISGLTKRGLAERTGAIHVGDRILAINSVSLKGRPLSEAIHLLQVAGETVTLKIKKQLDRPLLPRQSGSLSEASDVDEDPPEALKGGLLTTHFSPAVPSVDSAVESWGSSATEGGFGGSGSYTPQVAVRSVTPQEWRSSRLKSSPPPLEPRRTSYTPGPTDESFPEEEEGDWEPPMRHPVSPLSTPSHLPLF
UniProt Q62083: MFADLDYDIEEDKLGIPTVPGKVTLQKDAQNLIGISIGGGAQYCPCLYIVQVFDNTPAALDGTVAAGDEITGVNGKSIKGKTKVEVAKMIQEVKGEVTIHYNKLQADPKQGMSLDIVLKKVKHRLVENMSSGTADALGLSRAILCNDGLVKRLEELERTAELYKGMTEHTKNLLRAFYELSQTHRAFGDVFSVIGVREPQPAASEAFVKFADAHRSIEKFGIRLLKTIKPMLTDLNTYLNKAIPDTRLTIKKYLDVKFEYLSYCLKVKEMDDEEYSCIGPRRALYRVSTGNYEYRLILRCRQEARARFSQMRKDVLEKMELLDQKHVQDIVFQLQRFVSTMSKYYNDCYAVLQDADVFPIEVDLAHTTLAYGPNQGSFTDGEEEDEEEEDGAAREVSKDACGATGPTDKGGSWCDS

Experiments:
[1] = biological target: GRIP (UniProt P97879); test: co-immunoprecipitation (anti-Flag) from co-transfected HEK 293T cells, anti-GRIP western blot
[2] = biological target: myc-tagged ABP (AMPA binding protein) (UniProt Q9WTW1); test: co-immunoprecipitation from HEK 293T cells stably expressing Flag-tagged GPR10, transfected with myc-tagged ABP
[3] = biological target: 6X-Histidine tagged GRIP PDZ domain segment 4-6 (UniProt P97879); test: co-immunoprecipitation of 6X-His tagged GRIP PDZ segments with Flag-tagged GPR10
[4] = biological target: myc-tagged PICK1 (UniProt Q62083); test: co-immunoprecipitation from HEK 293T cells co-transfected with myc-tagged PICK1 and Flag-tagged GPR10
[5] = biological target: GRIP (UniProt P97879); test: co-immunoprecipitation of alanine point mutants of Flag-tagged GPR10 with GRIP, HEK 293T cells

binding [1] | binding [2] | binding [3] | binding [4] | binding [5] | Binder
binds | binds | binds | binds | – | Flag-tagged GPR10 (wild type) (receptor, UniProt P49683 1-370, looked up, not shown: small tags and cut ends) MASSTTRGPRVSDLFSGLPPAVTTPANQSAEASAGNGSVAGADAPAVTPFQSLQLVHQLKGLIVLLYSVVVVVGLVGNCLLVLVIARVRRLHNVTNFLIGNLALSDVLMCTACVPLTLAYAFEPRGWVFGGGLCHLVFFLQPVTVYVSVFTLTTIAVDRYVVLVHPLRRRISLRLSAYAVLAIWALSAVLALPAAVHTYHVELKPHDVRLCEEFWGSQERQRQLYAWGLLLVTYLLPLLVILLSYVRVSVKLRNRVVPGCVTQSQADWDRARRRRTFCLLVVIVVVFAVCWLPLHVFNLLRDLDPHAIDPYAFGLVQLLCHWLAMSSACYNPFIYAWLHDSFREELRKLLVAWPRKIAPHGQNMTVSVVI
– | – | – | – | binds | Flag-tagged GPR10 T365A (receptor, UniProt P49683 1-370, looked up, not shown: small tags and cut ends) MASSTTRGPRVSDLFSGLPPAVTTPANQSAEASAGNGSVAGADAPAVTPFQSLQLVHQLKGLIVLLYSVVVVVGLVGNCLLVLVIARVRRLHNVTNFLIGNLALSDVLMCTACVPLTLAYAFEPRGWVFGGGLCHLVFFLQPVTVYVSVFTLTTIAVDRYVVLVHPLRRRISLRLSAYAVLAIWALSAVLALPAAVHTYHVELKPHDVRLCEEFWGSQERQRQLYAWGLLLVTYLLPLLVILLSYVRVSVKLRNRVVPGCVTQSQADWDRARRRRTFCLLVVIVVVFAVCWLPLHVFNLLRDLDPHAIDPYAFGLVQLLCHWLAMSSACYNPFIYAWLHDSFREELRKLLVAWPRKIAPHGQNMAVSVVI
– | – | – | – | binds | Flag-tagged GPR10 V366A (receptor, UniProt P49683 1-370, looked up, not shown: small tags and cut ends) MASSTTRGPRVSDLFSGLPPAVTTPANQSAEASAGNGSVAGADAPAVTPFQSLQLVHQLKGLIVLLYSVVVVVGLVGNCLLVLVIARVRRLHNVTNFLIGNLALSDVLMCTACVPLTLAYAFEPRGWVFGGGLCHLVFFLQPVTVYVSVFTLTTIAVDRYVVLVHPLRRRISLRLSAYAVLAIWALSAVLALPAAVHTYHVELKPHDVRLCEEFWGSQERQRQLYAWGLLLVTYLLPLLVILLSYVRVSVKLRNRVVPGCVTQSQADWDRARRRRTFCLLVVIVVVFAVCWLPLHVFNLLRDLDPHAIDPYAFGLVQLLCHWLAMSSACYNPFIYAWLHDSFREELRKLLVAWPRKIAPHGQNMTASVVI
– | – | – | – | binds | Flag-tagged GPR10 V369A (receptor, UniProt P49683 1-370, looked up, not shown: small tags and cut ends) MASSTTRGPRVSDLFSGLPPAVTTPANQSAEASAGNGSVAGADAPAVTPFQSLQLVHQLKGLIVLLYSVVVVVGLVGNCLLVLVIARVRRLHNVTNFLIGNLALSDVLMCTACVPLTLAYAFEPRGWVFGGGLCHLVFFLQPVTVYVSVFTLTTIAVDRYVVLVHPLRRRISLRLSAYAVLAIWALSAVLALPAAVHTYHVELKPHDVRLCEEFWGSQERQRQLYAWGLLLVTYLLPLLVILLSYVRVSVKLRNRVVPGCVTQSQADWDRARRRRTFCLLVVIVVVFAVCWLPLHVFNLLRDLDPHAIDPYAFGLVQLLCHWLAMSSACYNPFIYAWLHDSFREELRKLLVAWPRKIAPHGQNMTVSVAI
